{
  "source": "paper PMC3252277",
  "target": "recombinant full length LTBP-4 (human)",
  "assay": "SPR; interaction studies summarized in Table S2 (ADAMTSL, LTBP and fibrillin-1 peptides); which partner was coupled is not given; 25°C, HBS-EP buffer; both purified",
  "note": "Results are given in words; binding and its absence hold for the method and conditions named.",
  "data": [
    {"binder": "recombinant full-length ADAMTSL-2 (protein, UniProt Q7TSK7 30-957) SDNSPTSNSLEGGADTTAYWWGEWTKWTACSRSCGGGVTSQERHCLQQRRKSVPGTGNRTCVGTSKRYQLCRVQECPPDGRSFREEQCVSFNSRVYDGRAYQWKPLYPDDYVHISSKPCDLHCSTVDGQRQLTVPARDGTSCKLTDLRGVCVSGKCEPIGCDGVLFSTHTLDKCGVCQGDGSSCTHVTGNYRKGNNHLGYSLVTHIPAGARDIQIVERKKSADVLALADEAGFYFFNGNYKVDSPKNFNIAGTVVKYRRPMDVYETGIEYIVAQGPTNQGLNVMVWNQNGKSPSITFEYTLLQSPHMHHLPPVYYSFSEAASQSTESTERQELDSARLLGFMQHNGSLYRQTSSERLGLNSQLFQPPAPEVELGPSRGQESNEVCKQASGGVCEGPPRGKGFQDHNATGRAFSADKDDREISAHFTSHELLSANTISDQLLGTGSESEEFSLNETMNSIFAQGAPRSSPAESLYVDYEENEGPAAYLINGSYLELSSDRINTSSEAPFPNTSASPPNLAGNRTHKARTRPKARKQGVSPADMYRWKLSSHEPCSATCTTGVMSTYAMCVRYDGVEVDDSYCDALTRPEPVHEFCAGRECQPRWETSSWSECSRTCGEGHQFRIVRCWKMLSPGFDSSVYSDLCEATEAVRPEERKTCRNPACGPQWEMSEWSECTAKCGERSVVTRDIRCSEDEKLCDPSTKPVGEKNCTGPPCDRQWTVSDWGPCSGSCGQGRTIRHVYCKTSDGRVVPESQCQTETKPLAIHPCGDKNCPAHWLAQDWERCNTTCGRGVKKRLVLCMELANGKPQIRSGPECGLARKPPEESTCFERPCFKWYTSPWSECTKTCGVGVRMRDVKCYQGTDIVRGCDPLVKPVGRQACDLQPCPTEPPDDSCQDQPGTNCALAIKVNLCGHWYYSKACCRSCRPPHS", "values": [
      {"measurement": "binding", "result": "no binding"}
    ]}
  ]
}
